From US12332198B2, “Metabolite based diagnostics for periprosthetic joint infection” (priority 2022, dated 2025)

Test system: P. aeruginosa PAO1
Experiment: Untargeted NMR-based metabolomics, planktonic versus biofilm
Design: species or system Pseudomonas aeruginosa
Details: approximate

Row | Compound | fold decrease of metabolite in biofilm
1 | CC(=O)O [Acetic acid] | three-fold
2 | CC(O)C(=O)O (centres unmarked) [Lactic acid] | about 10 fold
